Publication doi:10.1101/2025.09.29.679228

Target: EphA2 ICRΔSAM, kinase-dead (D739N) (human)
Assay: MST

B1: SHIP2 SAM domain (isolated) (domain or fragment, UniProt O15357 1200-1258)
chain: GMSAWLRAIGLERYEEGLVHNGWDDLEFLSDITEEDLEEAGVQDPAHKRLLLDTLQLSK
- binding: binds

Results are given in words; binding and its absence hold for the method and conditions named. Binding calls can cover weak binding; strength is not graded here.
